The list shows a part of the results. Single values are uncertain, as repeats are few or missing.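 Pooled together, 41 HAP1 clones carry intronic fluorescent tags on 61 cancer-associated proteins, and each clone is recognized by its imaging pattern. Measurements are benchmarked against DMSO-treated control wells. dBET6, a BRD4 degrader, served as the positive control.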
How the values were obtained:
[1] = biological target: XPO1 (intron 15 mScarlet tag, HAP1) (UniProt O14980); assay: XPO1 fluorescence intensity change vs DMSO (log2 fold change); higher = more XPO1 protein; settings: 6 h
[2] = biological target: BRD4 (intron 10 mScarlet tag, HAP1) (UniProt O60885); assay: BRD4 median nuclear fluorescence intensity change vs DMSO (log2 fold change); higher = more BRD4 protein; settings: 6 h

Chains of the proteins cited; added tags and fusions are not shown.
UniProt O14980, whole entry: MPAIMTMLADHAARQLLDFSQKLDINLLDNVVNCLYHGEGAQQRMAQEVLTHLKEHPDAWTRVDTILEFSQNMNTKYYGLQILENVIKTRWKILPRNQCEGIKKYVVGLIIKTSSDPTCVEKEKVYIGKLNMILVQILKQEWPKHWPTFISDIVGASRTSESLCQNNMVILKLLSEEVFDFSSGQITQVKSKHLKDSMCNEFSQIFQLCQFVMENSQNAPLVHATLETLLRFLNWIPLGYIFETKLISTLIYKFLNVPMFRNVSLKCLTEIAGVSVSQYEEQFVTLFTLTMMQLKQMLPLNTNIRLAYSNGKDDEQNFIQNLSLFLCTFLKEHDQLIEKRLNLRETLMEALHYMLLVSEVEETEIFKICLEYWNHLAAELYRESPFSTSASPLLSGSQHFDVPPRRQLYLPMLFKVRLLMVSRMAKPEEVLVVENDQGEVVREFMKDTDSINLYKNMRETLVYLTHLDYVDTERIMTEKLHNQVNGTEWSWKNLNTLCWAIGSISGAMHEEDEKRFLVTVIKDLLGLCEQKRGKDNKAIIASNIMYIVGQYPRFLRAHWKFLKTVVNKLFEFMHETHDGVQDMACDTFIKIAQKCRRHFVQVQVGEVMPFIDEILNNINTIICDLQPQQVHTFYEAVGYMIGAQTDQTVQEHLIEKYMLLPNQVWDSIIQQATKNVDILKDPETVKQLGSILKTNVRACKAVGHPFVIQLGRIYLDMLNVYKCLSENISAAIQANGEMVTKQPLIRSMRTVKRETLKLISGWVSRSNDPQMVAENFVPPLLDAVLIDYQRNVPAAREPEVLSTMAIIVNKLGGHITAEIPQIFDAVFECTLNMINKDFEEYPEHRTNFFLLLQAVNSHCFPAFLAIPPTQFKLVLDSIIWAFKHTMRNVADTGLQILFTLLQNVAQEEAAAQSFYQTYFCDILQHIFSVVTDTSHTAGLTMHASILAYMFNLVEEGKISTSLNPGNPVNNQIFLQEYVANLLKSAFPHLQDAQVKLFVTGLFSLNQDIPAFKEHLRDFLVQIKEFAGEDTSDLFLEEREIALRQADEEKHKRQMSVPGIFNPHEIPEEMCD

SMILES | XPO1 fluorescence intensity change (log2) [1] | BRD4 median nuclear fluorescence intensity change (log2) [2]
CCn1c(-c2ccccc2)cnc1SC(C)C(=O)Nc1cccc(C(C)=O)c1 (centres undefined) (10 µM) | -0.108 | 0.0581
CN(C)c1c(F)cc(NC(=O)NCc2ccccc2CO)cc1F (10 µM) | -0.0982 | 0.133
Nc1c(Cl)cc(NC(=O)C2CC(c3cccc(F)c3)=NO2)cc1Cl (centres undefined) (10 µM) | 0.0273 | 0.000651
CCN(C)CC1CCN(c2nc(OC)nc(N3CCCCCC3)n2)C1 (centres undefined) (0.1 µM) | -0.0255 | 0.00597
CN(Cc1ccccc1)C(=O)CCCNc1ccnc2cc(Cl)ccc12 (10 µM) | -0.149 | 0.109
O=C1OCC(c2ccc3c(c2)OCCCO3)=C1c1ccc(Cl)c(Cl)c1 (10 µM) | 0.35 | 0.0274
Cc1noc(C)c1COc1ccc(C(=O)Nc2ccc(OC(F)F)cc2)cc1 (10 µM) | 0.111 | 0.0692
CCc1cc2c(NCCc3ccc(OC)c(OC)c3)ncnc2s1 (10 µM) | -0.0596 | -0.0351
CC(C)n1c(SCC(=O)Nc2ccc3c(c2)CCC3)nc2ccccc2c1=O (10 µM) | -0.068 | 0.0303
Cc1cccc(/C=C/C(=O)c2ccc(O)c(CCCl)c2)c1 (10 µM) | -0.114 | -0.0425
COc1cc(OC)cc(C(=O)N2CCN(c3cccc(C)c3C)CC2)c1 (10 µM) | 0.0135 | 0.157
Cc1occc1C(=O)Nc1nc2ccc(S(C)(=O)=O)cc2s1 (10 µM) | 0.00301 | -0.0753
O=C(/C=C/c1ccc(C(F)(F)F)cc1)c1ccc(O)c(CCCl)c1 (10 µM) | 0.041 | 0.0733
Cc1cccc(CN(Cc2ccc(OCCCCl)cc2)Cc2cccc(C)n2)n1 (10 µM) | 0.0142 | 0.00131
COc1cc(NC(C)c2nc3sc(C)c(C)c3c(=O)[nH]2)cc(OC)c1 (centres undefined) (10 µM) | -0.0581 | 0.0807
O=C(/C=C/c1cc(Br)ccc1F)c1ccc(O)c(CCCl)c1 (10 µM) | -0.126 | -0.11
O=C(/C=C/c1ccccc1OC(F)(F)F)c1ccc(O)c(CCCl)c1 (10 µM) | -0.103 | 0.0479
Cc1cc(NCCOc2ccc3c(c2)CCC3)n2ncnc2n1 (10 µM) | 0.166 | 0.197
CC(=O)c1c(C)cc(C)c(CN(Cc2ccc3c(c2)CCO3)C2CCN(C(C)=O)CC2)c1C (1 µM) | 0.131 | 0.00664

Single records, from the list above:
CC(C)n1c(SCC(=O)Nc2ccc3c(c2)CCC3)nc2ccccc2c1=O (10 µM) is listed as XPO1 fluorescence intensity change (log2) [1]: -0.068; BRD4 median nuclear fluorescence intensity change (log2) [2]: 0.0303
CN(Cc1ccccc1)C(=O)CCCNc1ccnc2cc(Cl)ccc12 (10 µM) is listed as XPO1 fluorescence intensity change (log2) [1]: -0.149; BRD4 median nuclear fluorescence intensity change (log2) [2]: 0.109

The list goes on:

SMILES | XPO1 fluorescence intensity change (log2) [1] | BRD4 median nuclear fluorescence intensity change (log2) [2]
CCOc1ccc(-n2c(=O)c3ccc(Cl)cc3n3c(CCl)nnc23)cc1 (1 µM) | 0.0657 | 0.0289
N#CC(C#N)=C1C=CC=CN1/C(=C/c1cccc(F)c1)C(=O)c1cccs1 (10 µM) | 0.105 | 0.0639
COc1cc(OC)c2c(-c3ccccc3)cc(SCC(N)=O)nc2c1 (10 µM) | 0.153 | 0.0744
O=C(c1cc(-c2ccncc2)nc2ccccc12)N1CCN(c2ccccc2)CC1 (1 µM) | -0.281 | 0.0902
O=C(NCCc1nnc2ccccn12)c1ccc(-c2ccccc2F)s1 (10 µM) | -0.00836 | -0.045
Oc1ccc(-c2csc(-c3cccc(F)c3)n2)cc1O (10 µM) | -0.131 | -0.15
CCOC(=O)c1c(-c2ccc(C)o2)csc1NC(=O)CCCl (10 µM) | 0.096 | 0.107
CCOc1cc(Cl)c(S(=O)(=O)N2c3ccccc3CC2C)cc1Cl (centres undefined) (10 µM) | 0.0922 | -0.0219
NS(=O)(=O)OC[C@@H]1C[C@@H](n2ccc3c(N[C@H]4CCc5ccccc54)ncnc32)C[C@@H]1O (2 µM) | -0.0259 | 0.0786
CC(C)(C)c1cc(Nc2ccncc2)n2ncc(-c3ccccc3)c2n1 (10 µM) | -0.152 | 0.0937
COc1cc(C(=O)Nc2nc(-c3ccccn3)cs2)cc(OC)c1OC (10 µM) | -0.17 | -0.129
Cc1ccc(-c2ccc(C(=O)NCc3nnc4ccccn34)s2)o1 (1 µM) | -0.148 | 0.073
N#CC(C#N)=C1C=CC=CN1/C(=C/c1ccc(Cl)cc1)C(=O)c1ccccc1 (10 µM) | 0.0862 | 0.0646
O=C(/C=C/c1ccc(F)c(F)c1)c1ccc(O)c(CCCl)c1 (10 µM) | -0.189 | -0.057
Cc1sc(-c2ccco2)nc1C(=O)N1CCCSc2ccccc21 (0.1 µM) | 0.0482 | 0.17
Cc1ccccc1CC(=O)Nc1nc2c(C(F)(F)F)cccc2s1 (10 µM) | -0.0969 | -0.0308
COc1cc(C)c(S(=O)(=O)NCCc2c(C)[nH]c3ccc(C)cc23)cc1C (10 µM) | -0.203 | 0.135
CN(C)CC#Cc1ccc(OCCCc2sc(N3CCc4cccc(C(=O)Nc5nc6ccccc6s5)c4C3)nc2C(=O)O)c(F)c1 (10 µM) | -0.0281 | -0.06
